Patent US20130059292
For some assays here: Where cells or extracts were used, other partners may take part. For some assays here: For at least one entry, the source does not settle the construct or the ends of the probe.

Protein sequences, listed by entry. Tags and fused reporters are not part of them. Lines headed by an entry give the natural chain unless they say otherwise; changes in a name come on top. Residues count along the entry.
UniProt P07288, 25-261: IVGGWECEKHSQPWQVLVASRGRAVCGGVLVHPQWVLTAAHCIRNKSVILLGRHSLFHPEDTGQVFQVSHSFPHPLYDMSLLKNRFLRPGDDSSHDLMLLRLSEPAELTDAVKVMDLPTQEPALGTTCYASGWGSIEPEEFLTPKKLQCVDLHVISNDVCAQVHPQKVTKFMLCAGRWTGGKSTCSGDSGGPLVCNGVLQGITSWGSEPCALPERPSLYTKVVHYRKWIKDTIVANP
UniProt P31751: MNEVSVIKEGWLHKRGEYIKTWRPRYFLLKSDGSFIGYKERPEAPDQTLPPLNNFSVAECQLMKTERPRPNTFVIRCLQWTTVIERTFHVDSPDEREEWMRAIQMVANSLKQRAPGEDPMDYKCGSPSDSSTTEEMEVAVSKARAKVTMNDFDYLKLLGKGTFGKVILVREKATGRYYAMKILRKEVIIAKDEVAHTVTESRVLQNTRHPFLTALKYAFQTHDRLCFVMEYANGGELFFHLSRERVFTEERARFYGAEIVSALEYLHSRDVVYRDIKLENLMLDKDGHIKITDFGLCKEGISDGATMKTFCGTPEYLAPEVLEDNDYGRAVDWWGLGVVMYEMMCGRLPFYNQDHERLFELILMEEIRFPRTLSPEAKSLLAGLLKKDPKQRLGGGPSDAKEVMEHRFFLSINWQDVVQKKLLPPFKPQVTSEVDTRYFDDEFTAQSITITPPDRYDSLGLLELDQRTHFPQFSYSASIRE

What was measured:
Experiment in all cases: pull-down
[1] = biological target: EGFR (UniProt P00533); conditions: 5-NapdU (5-(N-naphthylcarboxyamide)-2'-deoxyuridine) at positions printed as 6 (n in listing) [n positions 14,15,17,22,24,27,31,33,37,38,39,44 = modified dU], label: biotin, or NH2/SH coupled to beads, single-stranded DNA
[2] = system: Insulin receptor (IR) (Homo sapiens); conditions: 5-BzdU (5-(N-benzylcarboxyamide)-2'-deoxyuridine) at positions printed as 5 (n in listing) [n positions 6,11,12,13,18,19,24,27,30,33,35,41 = modified dU]; captures alpha and beta subunits; eluted by free aptamer or 20 mM EDTA; Western and MALDI-MS confirmed; protein in a lysate after overexpression; protein details: Rat-1 cells stably expressing human IR; label: biotin, or SH coupled to beads; single-stranded DNA
[3] = system: Insulin receptor (IR); conditions: 5-BzdU (5-(N-benzylcarboxyamide)-2'-deoxyuridine) at positions printed as 5 (n in listing) [n positions 6,11,12,13,18,19,24,27,30,33,35,41 = modified dU]; 10% FBS or HEK293T lysate, 1 mM dextran sulfate; MALDI-MS confirmed; purified recombinant protein; label: biotin, or SH coupled to beads; single-stranded DNA
[4] = biological target: PSA (prostate specific antigen) (UniProt P07288); conditions: 5-BzdU (5-(N-benzylcarboxyamide)-2'-deoxyuridine) at positions printed as 5 (n in listing) [n positions 6,7,8,10,13,14,15,16,28,33,34,39,40,42 = modified dU]; 10% FBS or HEK293T lysate, 1 mM dextran sulfate; MALDI-MS confirmed; purified recombinant protein; label: biotin; single-stranded DNA
[5] = biological target: AKT2 (Homo sapiens) (UniProt P31751); conditions: 5-BzdU (5-(N-benzylcarboxyamide)-2'-deoxyuridine) at positions printed as 5 (n in listing) [n positions 7,8,9,14,15,16,18,21,26,27,30,32,40,41,42,44 = modified dU]; MCF7 lysate; Western with anti-Akt and MS (Mascot score 72, 4 peptides); protein in an extract; protein details: endogenous, MCF7 cell lysate; label: SH coupled to magnetic agarose beads; single-stranded DNA
[6] = biological target: ErbB2 (HER2) (UniProt P04626); conditions: 5-NapdU (5-(N-naphthylcarboxyamide)-2'-deoxyuridine) at positions printed as 6 (n in listing) [n positions 1,4,9,11,12,16,24,25,26,29,30 = modified dU], label: biotin, or NH2/SH coupled to beads, single-stranded DNA

“AGTTCAGCCCCGGTTATACGGTCTCATGCCTGTGCGTTTAACCTAGACCA [EGFR aptamer #1193-50]”: binds ([1]; 5 mM Mg2+ lysis buffer, needs salmon sperm DNA or dextran sulfate competitor (no significant EGFR band without, p104), eluted by 20 mM EDTA 60 C, DNase I or Exo I, protein in an extract, protein details: endogenous, A431 cell lysate); binds ([1]; spiked in 10% FBS or HEK293T lysate, 1 mM dextran sulfate or other polyanions, dose dependent on aptamer beads, purified recombinant protein).
“GCCTGTAAGGTTTAAGCTTGGCCTAATGGTGCTATCAGGCTC [IR aptamer #1652-36]”: binds [2]; binds [3].
“ACGAGTTTGTGGTTTTGGACAGGCAGCTGACGTTGGGCTTCTCGCAACA [PSA aptamer #1660-07]”: binds [4].
“AGTTCCTTTACCCTTTGTGGTCGACTTCCTATGGAGGAGTTTATGGACCA [Akt aptamer #2153-02-02]”: binds [5].
“TCCTGGCATGTTCGATGGAGGCCTTTGATTACAGCCCAGA [ErbB2 aptamer #1194-34]”: binds ([6]; 10% FBS or HEK293T lysate, 1 mM dextran sulfate, dose dependent on aptamer beads, purified recombinant protein); binds ([6]; eluted by free ErbB2 aptamer or 20 mM EDTA, MALDI-MS confirmed, protein in a lysate after overexpression, protein details: MCF7 cells stably expressing human ERBB2).
